# The whole screen tested about 580,000 compounds, of which about 6,100 (1.1%) were called active. Inconclusive results, whose numbers are uncertain, are shown with a selection of clear calls. Calls follow the shape of the dose curve; as a rule, active = well fitted inhibition curve with a large enough effect; inconclusive = small, poorly fitted or top-dose-only effect, or another doubt; inactive = no such curve, though single readings can be large or run the other way. Potencies beside an inconclusive call are fits to weak or partial responses and may not hold up.
# Protein sequences, listed by entry. Tags and fused reporters are not part of them. Lines headed by an entry give the natural chain unless they say otherwise; changes in a name come on top.
# UniProt P18054: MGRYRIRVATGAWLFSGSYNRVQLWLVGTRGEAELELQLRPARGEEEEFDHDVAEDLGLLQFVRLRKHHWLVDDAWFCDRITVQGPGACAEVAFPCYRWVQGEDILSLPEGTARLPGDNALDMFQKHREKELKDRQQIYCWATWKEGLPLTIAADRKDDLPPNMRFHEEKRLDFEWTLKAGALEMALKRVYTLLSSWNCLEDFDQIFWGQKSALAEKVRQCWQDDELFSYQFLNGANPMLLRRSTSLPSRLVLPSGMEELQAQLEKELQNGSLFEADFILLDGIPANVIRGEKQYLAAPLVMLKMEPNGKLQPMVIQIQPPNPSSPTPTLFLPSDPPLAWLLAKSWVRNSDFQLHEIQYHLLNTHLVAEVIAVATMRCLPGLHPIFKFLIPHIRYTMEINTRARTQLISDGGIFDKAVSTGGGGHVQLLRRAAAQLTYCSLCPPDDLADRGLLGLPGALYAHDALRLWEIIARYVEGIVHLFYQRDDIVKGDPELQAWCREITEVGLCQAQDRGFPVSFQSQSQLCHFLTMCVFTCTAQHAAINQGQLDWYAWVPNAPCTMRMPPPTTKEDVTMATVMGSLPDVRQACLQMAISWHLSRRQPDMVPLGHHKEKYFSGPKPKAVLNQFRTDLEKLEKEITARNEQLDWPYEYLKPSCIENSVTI
# Target: Polyunsaturated fatty acid lipoxygenase ALOX12 (Homo sapiens) (UniProt P18054)
# Test: Primary qHTS assay for inhibitors of human arachidonate 12S-lipoxygenase (ALOX12): Round 2
# Conditions: purified 12hLO, xylenol orange hydroperoxide absorbance; activity change, negative = inhibition: at 108 µM (top of the series) unless noted
# How it was run: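 Purified human 12hLO (150 nM final) in 25 mM Hepes, 0.01% Triton X-100, pH 7.0 was preincubated 15 min at room temperature with compound. Then 40 uM arachidonic acid was added, 30 min. Hydroperoxide was read by Fe-XO absorbance ratio 573/405 nm.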
# % is scaled to controls: 0 for no effect and ±100 for the full control effect; potency is read from the fitted curve at half-maximal effect.
SMILES,"activity change, negative = inhibition",Potency
O=C(c1ccc(Cl)c(S(=O)(=O)NC2CC2)c1)N1CCN(c2ccc(F)cc2)CC1,inactive: 23.7%,–
O=C(CSc1nnnn1-c1ccccc1)c1ccc(Br)s1,–,"inconclusive: 2 µM [inhibitor, full curve, poor fit]"
COCCC1=NN(C(=O)c2ccncc2)C(O)(C(F)(F)F)C1 (centres undefined),inactive: -1.75%,–
COc1ccc(Cc2nnc(NC(=O)C3CC(=O)N(c4ccc(C)c(Cl)c4)C3)s2)cc1OC (centres undefined),inconclusive: -49.3% [inhibitor],–
COc1ccc(Cl)cc1N=Nc1ncc[nH]1,–,"inconclusive: 39.8 µM [inhibitor, partial curve, poor fit]"
CCOc1ccc2[nH]c(=O)c(CN(Cc3nnnn3Cc3ccco3)C3CCCCC3)cc2c1,–,"inconclusive: 6.31 µM [inhibitor, full curve, poor fit]"
O=C(CSc1nnc2ccccn12)NNC(=O)c1ccccc1,–,"inconclusive: 70.8 µM [inhibitor, single point]"
COCCn1cc(C(=S)N2CCOCC2)c2ccccc21,–,"inconclusive: 89.1 µM [inhibitor, partial curve, poor fit]"
O=[N+]([O-])c1c(Nc2ccc(O)cc2)cc(Cl)c2nonc12,–,"inconclusive: 50.1 µM [inhibitor, partial curve, poor fit]"
O=C(OCCCc1ccccc1)c1cccnc1,inactive: 44.2%,–
O=C(O)C[C@@H]1CCN(C(=O)c2cccs2)C[C@@H]1CCN1CCN(c2ccccn2)CC1,inactive: 8.62%,–
O=C1N(Cc2ccccc2)c2ccccc2C12CCN(Cc1ccccc1)C2 (centres undefined),–,"inconclusive: 35.5 µM [inhibitor, partial curve, poor fit]"
CCN(CC)c1cc2c(cc1F)c(=O)c(S(=O)(=O)c1ccc(OC)cc1)cn2CC,inactive: -8.59%,–
Nc1ccc(-c2cnc3ccccc3n2)cc1,–,"inconclusive: 44.7 µM [inhibitor, single point]"
CN(C(=O)C(C)(C)C)[C@H]1C[C@H]2c3[nH]c4ccccc4c3CCN2C(=O)[C@H]1CO,–,"inconclusive: 141 µM [inhibitor, single point]"
O=C(O)c1cc(-c2ccccc2)nc2ccc(F)cc12,–,"inconclusive: 31.6 µM [inhibitor, partial curve, poor fit]"
Cc1ccccc1Oc1ccc2c(c1)[C@@H]1C[C@H](N(C)C(=S)Nc3ccc(F)cc3)[C@H]([C@H](C)O)C(=O)N1CC2,–,"inconclusive: 39.8 µM [inhibitor, partial curve, poor fit]"
CCOc1ccc(CNC(=O)C2CCCN(S(=O)(=O)c3ccc4c(ccn4C)c3)C2)cc1 (centres undefined),–,"inconclusive: 100 µM [inhibitor, partial curve, poor fit]"
CC1=CC(=O)C=C(C)C1=NOC(=O)c1cccc([N+](=O)[O-])c1,inactive: 0%,–
S=c1[nH]nc(C2CCCCC2)n1/N=C/c1c(Cl)cccc1Cl,–,"inconclusive: 25.1 µM [inhibitor, partial curve, poor fit]"
CCOc1ccc(C(C)NC(=S)NC2CCCCC2)cc1OCC (centres undefined),–,"inconclusive: 44.7 µM [inhibitor, partial curve]"
CC(C)(C)c1cc(Cl)ccc1OCCOCCN1CCCC1,–,"inconclusive: 0.708 µM [inhibitor, full curve]"
O=C(O)c1cncc(C(=O)O)c1,–,"inconclusive: 1.41 µM [inhibitor, full curve, poor fit]"

SMILES,"activity change, negative = inhibition",Potency
Cc1ccc(/C=C/C(=O)c2cccs2)cc1,inactive: -3.72%,–
COc1ccc(-c2nc(CSc3nncn4c3cc3sccc34)c(C)o2)cc1OC,–,"inconclusive: 56.2 µM [inhibitor, partial curve, poor fit]"
O=C(O)c1ccccc1-c1ccccc1C(=O)O,–,"inconclusive: 31.6 µM [inhibitor, single point]"
CC(C)=NNc1nc(-c2ccc(N3C(=O)CCC3=O)cc2)cs1,–,"inconclusive: 22.4 µM [inhibitor, partial curve, poor fit]"
CC(C)(C)c1ccc(S(=O)(=O)N2CCN(Cc3noc(CCC(=O)N4CCCCC4)n3)CC2)cc1,–,"inconclusive: 50.1 µM [inhibitor, partial curve, poor fit]"
CN(C)S(=O)(=O)c1cccc(NC(=S)NNC(=O)c2cc3ccccc3cc2O)c1,–,active: 35.5 µM
CCn1nc(C)c(CCN(C)C(=O)Cn2nc3n(c2=O)CCC(N)CC3)c1C (centres undefined),–,"inconclusive: 17.8 µM [inhibitor, full curve]"
CN(Cc1cnn(C)c1)C(=O)C1C2C(=O)N(Cc3ccc(F)cc3)C[C@@]23C=C[C@@H]1O3 (some centres undefined),inactive: 7.07%,–
CCCCOc1ccc(C(=O)C(CN2CCOCC2)c2ccccc2)cc1 (centres undefined),–,"inconclusive: 112 µM [inhibitor, single point]"
Cc1cccc(C)c1-n1nnnc1Sc1nnnn1-c1ccccc1,inactive: 1.87%,–
CCOC(=O)c1nc2cc3n(c(C)c-2c1C)C(C)C(CC)=C3C (centres undefined),inactive: -3.13%,–
O=C(COC(=O)c1ccc([N+](=O)[O-])cc1Cl)Nc1cccnc1Cl,–,"inconclusive: 100 µM [inhibitor, partial curve, poor fit]"
Cc1cc(OC(C)CCN2CCC(C(O)(c3ccccc3)c3ccccc3)CC2)ccc1Br (centres undefined),–,"inconclusive: 50.1 µM [inhibitor, partial curve, poor fit]"
COC(=O)C(Cc1ccccc1)NC(=O)c1cccc(S(=O)(=O)N(C)C)c1 (centres undefined),inactive: -27.7%,–
Cn1ccc(C(=O)N2CCC(c3nnc4n3C(C(=O)N3CCN(c5ncccn5)CC3)CC4)CC2)n1 (centres undefined),inactive: 0.146% [at 6.33 µM],–
COc1ccc(/C=N\Nc2ccccn2)c(OC)c1,inactive: 15.8%,–
O=[N+]([O-])c1ccccc1/C=N/n1c(C(F)(F)F)n[nH]c1=S,–,"inconclusive: 31.6 µM [inhibitor, partial curve, poor fit]"
Cc1oc(-c2ccccc2)nc1CC(=O)N(C)CC(=O)Nc1cccc2ccccc12,inactive: -14.7%,–
Cc1ccc(/C=N/Nc2ccccc2C(F)(F)F)cc1,inactive: 37.1%,–
Cc1c(NS(=O)(=O)c2cccc(C(=O)Nc3ccccc3)c2)c(=O)n(-c2ccccc2)n1C,–,"inconclusive: 112 µM [inhibitor, single point]"
CCc1nc(Nc2ccc(F)cc2)c2oc3ccccc3c2n1,–,"inconclusive: 35.5 µM [inhibitor, full curve, poor fit]"
CCCN1CCC(N(C)C(=O)NCc2ccccc2F)CC1,–,"inconclusive: 50.1 µM [inhibitor, partial curve, poor fit]"
COc1ccc(C(=O)n2nc(-c3ccco3)nc2NCc2cccs2)cc1OC,–,active: 7.94 µM

# Single entries from the entries so far.
# Under Potency, COc1ccc(C(=O)n2nc(-c3ccco3)nc2NCc2cccs2)cc1OC is listed with active: 7.94 µM
# Under activity change, negative = inhibition, Cc1cccc(C)c1-n1nnnc1Sc1nnnn1-c1ccccc1 is listed with inactive: 1.87%
# Under Potency, O=[N+]([O-])c1ccccc1/C=N/n1c(C(F)(F)F)n[nH]c1=S is listed with inconclusive: 31.6 µM [inhibitor, partial curve, poor fit]
# Under Potency, COc1ccc(-c2nc(CSc3nncn4c3cc3sccc34)c(C)o2)cc1OC is listed with inconclusive: 56.2 µM [inhibitor, partial curve, poor fit]

# (more compounds)

SMILES,"activity change, negative = inhibition",Potency
O=C(OCc1cn(-c2ccc(Cl)cc2)nn1)c1ccccc1,–,"inconclusive: 0.447 µM [inhibitor, full curve, poor fit]"
Cc1ccc(C2CC(=O)C3=C(C2)OC(N)=C(C#N)C3c2ccc(F)cc2)cc1 (centres undefined),–,"inconclusive: 10 µM [inhibitor, full curve, poor fit]"
CC1(C)CC(NC2C3CC4CC(C3)CC2C4)CC(C)(C)N1 (centres undefined),–,"inconclusive: 17.8 µM [inhibitor, single point]"
CCC(=O)NC(c1ccco1)c1cc(Cl)c2cccnc2c1O (centres undefined),inactive: -22.9%,–
Cc1cc(C)n(/N=C/c2ccccc2O)c(=O)c1,–,"inconclusive: 3.16 µM [inhibitor, full curve, poor fit]"
CCCc1nc2sc3c(c2c(=O)[nH]1)CCCC3,inactive: -3.48%,–
S=c1nn[nH]c2ccccc12,–,active: 31.6 µM
CCc1cc(C(=O)OC)c(NC(=O)CC2Nc3cc(C)c(C)cc3NC2=O)s1 (centres undefined),inactive: 14.6%,–
COc1ccc(C(=O)OCC(=O)Nc2cc(C)c(C)cc2[N+](=O)[O-])cc1,inactive: -6.08%,–
CCOc1ccc(N2C(=O)C(Cl)=C(Nc3ccccc3O)C2=O)cc1,–,"inconclusive: 17.8 µM [inhibitor, full curve]"
COc1ccc(CC(=O)N/N=C(\C)c2ccc(Br)s2)cc1,–,"inconclusive: 126 µM [inhibitor, single point]"
NS(=O)(=O)c1cnccc1Oc1cccc(Cl)c1,–,"inconclusive: 89.1 µM [inhibitor, partial curve, poor fit]"
COCCN(C(=O)Cc1cccs1)c1nnc(-c2ccncc2)s1,–,"inconclusive: 8.91 µM [inhibitor, partial curve, poor fit]"
CCCCN(CCCC)CCNC(=O)c1cn(CC)c2ccc(S(=O)(=O)N(C)C3CCCCC3)cc2c1=O,–,inactive
CC1=C(C)CC(C(=O)NCc2cccc(Cl)c2)C(C(=O)O)C1 (centres undefined),–,"inconclusive: 100 µM [inhibitor, single point]"
O=C(Nc1sc2c(c1C(=O)NCc1ccco1)CCCC2)c1ccc2c(c1)OCO2,–,"inconclusive: 17.8 µM [inhibitor, full curve, poor fit]"
Cc1ccc(-n2nc(C(=O)N/N=C/c3cccc(C(F)(F)F)c3)c3ccccc3c2=O)cc1C,–,"inconclusive: 0.398 µM [inhibitor, full curve, poor fit]"
O=C(Cn1cc([N+](=O)[O-])cn1)NC1CCCCCC1,inactive: -2.71%,–
CCOC(=O)N1CCC(N2CCN(S(=O)(=O)c3ccc([N+](=O)[O-])cc3)CC2)CC1,–,"inconclusive: 0.447 µM [inhibitor, full curve, poor fit]"
Cc1cccc(C(=O)NC2CCC(C(F)(F)F)CC2)n1 (centres undefined),inactive: 44.7%,–
CCOC(=O)c1c(CN2CCN(Cc3ccccc3)CC2)n(C)c2cc(Br)c(OC)cc12,inactive: -16.1%,–
COc1ccccc1Oc1c(C)oc2cc(OC(=O)c3ccco3)ccc2c1=O,inactive: 0.91%,–
O=C(CSc1ncnc2nc[nH]c12)NCCc1ccccc1,–,"inconclusive: 50.1 µM [inhibitor, partial curve, poor fit]"

# Source: PubChem BioAssay AID1671190 (National Center for Advancing Translational Sciences (NCATS), 2021)
